Structures can show the parent of a compound that is named as a salt. This is one part of the list. Repeats are few or missing, and single values can be far off.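 The three strains are clinical Candida auris isolates from the CDC resistance isolate bank, from clades III, IV and I, grown in RPMI-1640 at 35°C. Growth is background-corrected OD600 relative to vehicle-only wells on the same plate; a hit meant over 50% inhibition in at least two strains plus a plate-corrected B-score above 0.1.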
tested on: C. auris AR-387; test: growth relative to vehicle control (OD600 ratio) (fraction); higher = less inhibition; details: 10 µM; 24 h

Row | SMILES | growth
1 | O=c1[nH]cnc2c1ncn2[C@H]1CC[C@@H](CO)O1 [Didanosine] | 0.9
2 | Clc1ccc2nsnc2c1NC1=NCCN1 [Tizanidine HCl] | 0.99
3 | CC(=O)Oc1cc2c(s1)CCN(C(C(=O)C1CC1)c1ccccc1F)C2 (centres undefined) [Prasugrel] | 0.79
4 | CN1CCN(c2nc(C3=C(c4c[nH]c5ccccc45)C(=O)NC3=O)c3ccccc3n2)CC1 [Sotrastaurin] | 0.76
5 | COc1cc2ncnc(Nc3ccc(F)c(Cl)c3)c2cc1OCCCN1CCOCC1 [Gefitinib (ZD1839)] | 1.09
6 | CCCCOc1cc(C(=O)OCCN(CC)CC)ccc1N [Oxybuprocaine HCl] | 0.98
7 | C[C@@H](c1nc(-c2ccc(C#N)cc2)cs1)[C@](O)(Cn1cncn1)c1cc(F)ccc1F [Isavuconazole] | 0.01
8 | CCCC(=O)Nc1ccc(OCC(O)CNC(C)C)c(C(C)=O)c1 (centres undefined) [Acebutolol HCl] | 0.78
9 | CCOc1cc2ncc(C#N)c(Nc3ccc(F)c(Cl)c3)c2cc1NC(=O)/C=C/CN(C)C [Pelitinib (EKB-569)] | 1.03
10 | NC(=O)OCC(COC(N)=O)c1ccccc1 [Felbamate] | 1.26
11 | Cc1c(-c2ccc(O)cc2)n(Cc2ccc(OCCN3CCCCCC3)cc2)c2ccc(O)cc12 [Bazedoxifene Acetate] | 0.66
12 | CCn1cc(C(=O)O)c(=O)c2cc(F)c(N3CCNCC3)nc21 [Enoxacin] | 1.07
13 | CC(C)(O/N=C(\C(=O)N[C@@H]1C(=O)N2C(C(=O)[O-])=C(C[n+]3ccccc3)CS[C@H]12)c1csc(N)n1)C(=O)O [Ceftazidime Pentahydrate] | 1.13
14 | Cc1ccc(S(=O)(=O)NC(=O)NN2CC3CCCC3C2)cc1 (centres undefined) [Gliclazide] | 0.58

From the supplement of paper PMC10470496
